From US20170107254A1 (priority 2014, published 2017)
Where a sequence shows no end group, the ends are not given.

Test: peptide made by a vendor
Details: whole synthesis, high-performance liquid chromatography (by manufacturers), acetate (acetate content analysed by HPLC)

| Sequence | purity (crude or final not stated) [%] |
| --- | --- |
| RRRRRRRRRRRRRR | 88.7 |
| RRRRRRRRRRRRRRR | 92.1 |
